Test results from patent US20240373847A1, “HERBICIDAL MALONAMIDES” (BASF SE, priority 2021, published 2024).
Some entries share one result that the patent states for a list of compounds. At least one compound was matched to its structure with a doubt left.

Experiments:
Type in all cases: in vivo
[1] = test system: Avena fatua (AVEFA); experiment: greenhouse test, post-emergence treatment; details: 0.250 kg/ha, post-emergence method; scale from 0 to 100
[2] = test system: Alopercurus myosuroides (ALOMY); experiment: greenhouse test, post-emergence treatment; details: 0.250 kg/ha, post-emergence method; scale from 0 to 100
[3] = test system: Abutilon theophrasti (ABUTH); experiment: greenhouse test, pre-emergence treatment; details: 0.250 kg/ha, pre-emergence method; scale from 0 to 100
From the text: (§1) The culture containers used were plastic flowerpots containing loamy sand with approximately 3.0% of humus as the substrate. The seeds of the test plants were sown separately for each species.
(§2) For the pre-emergence treatment, the active ingredients, which had been suspended or emulsified in water, were applied directly after sowing by means of finely distributing nozzles. The containers were irrigated gently to promote germination and growth and subsequently covered with transparent plastic hoods until the test plants had rooted.
(§3) This cover caused uniform germination of the test plants, unless this had been impaired by the active ingredients.
(§4) Depending on the species, the test plants were kept at 10-25° C. or 20-35° C., respectively.
(§5) The test period extended over 2 to 4 weeks. During this time, the test plants were tended, and their response to the individual treatments was evaluated.
(§6) Evaluation was carried out using a scale from 0 to 100. 100 means no emergence of the test plants, or complete destruction of at least the aerial moieties, and 0 means no damage, or normal course of growth. A good herbicidal activity is given at values of 70 to <90 and a very good herbicidal activity is given at values of 90 to 100.
(§7) The test plants used in the greenhouse experiments were of the following species: […]

[4] = test system: Amaranthus retroflexus (AMARE); experiment: greenhouse test, post-emergence treatment; details: 0.250 kg/ha, post-emergence method; scale from 0 to 100
From the text: as §1
(§8) For the post-emergence treatment, the test plants were first grown to a height of 3 to 15 cm, depending on the plant habit, and only then treated with the active ingredients which had been suspended or emulsified in water. For this purpose, the test plants were either sown directly and grown in the same containers, or they were first grown separately as seedlings and transplanted into the test containers a few days prior to treatment.
as §4, §5, §6, §7

[5] = test system: Setaria viridis (SETVI); experiment: greenhouse test, post-emergence treatment; details: 0.250 kg/ha, post-emergence method; scale from 0 to 100
From the text: as §1, §8, §4, §5, §6, §7

[6] = test system: Echinocloa crus-galli (ECHCG); experiment: greenhouse test, post-emergence treatment; details: 0.250 kg/ha, post-emergence method; scale from 0 to 100
From the text: as §1, §8, §4, §5, §6, §7

[7] = test system: Amaranthus retroflexus (AMARE); experiment: greenhouse test, pre-emergence treatment; details: 0.250 kg/ha, pre-emergence method; scale from 0 to 100
From the text: as §1, §2, §3, §4, §5, §6, §7

[8] = test system: Apera spica-venti (APESV); experiment: greenhouse test, pre-emergence treatment; details: 0.250 kg/ha, pre-emergence method; scale from 0 to 100
From the text: as §1, §2, §3, §4, §5, §6, §7

[9] = test system: Echinocloa crus-galli (ECHCG); experiment: greenhouse test, pre-emergence treatment; details: 0.250 kg/ha, pre-emergence method; scale from 0 to 100
From the text: as §1, §2, §3, §4, §5, §6, §7

Cc1cc(F)cc(NC(=O)C(C)C(=O)NC(C)CC(=O)OCc2ccccc2)c1 (stereo not drawn) [I.11]
herbicidal activity against AVEFA [1]: good herbicidal activity (A good herbicidal activity is given at values of 70 to <90)
herbicidal activity against ALOMY [2]: good herbicidal activity (A good herbicidal activity is given at values of 70 to <90)
herbicidal activity against ABUTH [3]: good herbicidal activity (A good herbicidal activity is given at values of 70 to <90)

CCC(C(=O)Nc1cccc(OC(F)(F)F)c1)C(=O)NC(C)CCC(=O)OC (stereo not drawn) [I.116]
herbicidal activity against AMARE [4]: very good herbicidal activity (a very good herbicidal activity is given at values of 90 to 100)
herbicidal activity against SETVI [5]: very good herbicidal activity (a very good herbicidal activity is given at values of 90 to 100)
herbicidal activity against ECHCG [6]: very good herbicidal activity (a very good herbicidal activity is given at values of 90 to 100)
herbicidal activity against AMARE [7]: very good herbicidal activity (a very good herbicidal activity is given at values of 90 to 100)
herbicidal activity against APESV [8]: very good herbicidal activity (a very good herbicidal activity is given at values of 90 to 100)
herbicidal activity against ECHCG [9]: good herbicidal activity (A good herbicidal activity is given at values of 70 to <90)
